# From patent publication US20050234026A1, “Method and agent for inducing apoptosis/cell death in leukemia cells” (priority 2003, published 2005)
# Tested on: CLL cells
# Assay: Cytotoxicity of NOS inhibitors and NO quenchers/scavengers for freshly-isolated CLL cells in vitro
# Assay type: cell-based, human
# Conditions: Table 2, CLL cytotoxicity
structure (smiles),measurement,value
Cc1cccc(N)n1 [2-amino-6-methyl pyridine],ED50 for CLL,>2000 µM
